{"sequences": {"note": "By UniProt entry, the sequences of proteins in these tests, tags left out.", "UniProt O00429": "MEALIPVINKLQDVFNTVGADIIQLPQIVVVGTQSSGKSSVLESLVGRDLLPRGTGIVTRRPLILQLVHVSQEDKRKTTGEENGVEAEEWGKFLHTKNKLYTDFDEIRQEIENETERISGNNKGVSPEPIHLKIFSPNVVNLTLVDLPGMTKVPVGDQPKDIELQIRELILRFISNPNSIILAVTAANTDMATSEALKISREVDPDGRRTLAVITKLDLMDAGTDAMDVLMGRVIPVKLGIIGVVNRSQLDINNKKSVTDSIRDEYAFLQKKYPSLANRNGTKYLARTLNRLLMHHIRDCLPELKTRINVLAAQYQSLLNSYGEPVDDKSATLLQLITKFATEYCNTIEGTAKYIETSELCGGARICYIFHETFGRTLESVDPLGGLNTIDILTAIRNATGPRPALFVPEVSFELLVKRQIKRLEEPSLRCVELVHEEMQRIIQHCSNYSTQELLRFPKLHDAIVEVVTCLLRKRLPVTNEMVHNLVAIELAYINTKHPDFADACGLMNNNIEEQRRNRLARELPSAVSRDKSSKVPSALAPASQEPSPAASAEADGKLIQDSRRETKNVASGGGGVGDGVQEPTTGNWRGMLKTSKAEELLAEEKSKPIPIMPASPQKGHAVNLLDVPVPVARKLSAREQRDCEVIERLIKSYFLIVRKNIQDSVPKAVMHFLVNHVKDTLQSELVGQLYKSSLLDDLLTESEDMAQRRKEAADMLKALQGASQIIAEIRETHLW", "UniProt Q9Y3D6": "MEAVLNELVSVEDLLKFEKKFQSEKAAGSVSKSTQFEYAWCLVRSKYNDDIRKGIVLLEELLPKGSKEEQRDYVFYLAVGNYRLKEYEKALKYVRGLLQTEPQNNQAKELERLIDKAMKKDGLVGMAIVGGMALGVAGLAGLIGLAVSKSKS", "UniProt P63241": "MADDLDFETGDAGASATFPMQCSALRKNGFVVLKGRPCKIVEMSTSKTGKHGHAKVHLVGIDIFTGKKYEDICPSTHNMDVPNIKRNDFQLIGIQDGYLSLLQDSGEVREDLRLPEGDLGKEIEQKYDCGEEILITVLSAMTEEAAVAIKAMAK"}, "source": "paper doi:10.1101/787812", "key": {"[1]": {"molecular_target": "dynamin-related protein 1 (not stated (endogenous in VSMCs; human and mouse VSMCs were cultured)) (UniProt O00429)", "experiment": "co-IP"}, "[2]": {"molecular_target": "T1, mitofusin 1 (not stated (endogenous in VSMCs; human and mouse VSMCs were cultured)) (UniProt Q8IWA4)", "T1 sequence": "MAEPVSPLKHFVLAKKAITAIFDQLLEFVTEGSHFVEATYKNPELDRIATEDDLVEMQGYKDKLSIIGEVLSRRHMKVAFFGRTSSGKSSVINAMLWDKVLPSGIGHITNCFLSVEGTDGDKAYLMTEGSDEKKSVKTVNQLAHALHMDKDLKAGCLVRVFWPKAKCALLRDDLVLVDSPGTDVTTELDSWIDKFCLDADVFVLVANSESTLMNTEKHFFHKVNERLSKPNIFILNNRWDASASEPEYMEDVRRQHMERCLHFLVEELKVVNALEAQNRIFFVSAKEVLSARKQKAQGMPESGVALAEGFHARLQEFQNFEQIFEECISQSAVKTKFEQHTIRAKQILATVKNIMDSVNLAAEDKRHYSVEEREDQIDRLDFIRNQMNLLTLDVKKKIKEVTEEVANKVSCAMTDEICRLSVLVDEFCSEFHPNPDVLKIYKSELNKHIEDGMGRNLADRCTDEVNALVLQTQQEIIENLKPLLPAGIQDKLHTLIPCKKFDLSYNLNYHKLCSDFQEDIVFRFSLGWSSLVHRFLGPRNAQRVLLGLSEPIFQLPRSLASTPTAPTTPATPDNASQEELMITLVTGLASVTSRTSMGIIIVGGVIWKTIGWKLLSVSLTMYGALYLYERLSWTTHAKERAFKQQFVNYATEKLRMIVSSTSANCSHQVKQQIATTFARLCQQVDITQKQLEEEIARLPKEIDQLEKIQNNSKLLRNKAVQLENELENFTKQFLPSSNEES", "experiment": "co-IP"}, "[3]": {"molecular_target": "T2, Mtfr1 (not stated (endogenous in VSMCs; human and mouse VSMCs were cultured)) (UniProt Q15390)", "T2 sequence": "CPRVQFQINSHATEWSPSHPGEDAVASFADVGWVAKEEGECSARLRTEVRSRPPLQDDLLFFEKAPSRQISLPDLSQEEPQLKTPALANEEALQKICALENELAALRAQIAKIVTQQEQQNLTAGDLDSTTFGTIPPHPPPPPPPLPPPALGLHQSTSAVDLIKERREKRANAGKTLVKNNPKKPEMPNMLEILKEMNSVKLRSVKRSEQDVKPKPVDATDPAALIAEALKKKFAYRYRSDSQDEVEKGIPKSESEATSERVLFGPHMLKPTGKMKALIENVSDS", "experiment": "co-IP"}, "[4]": {"molecular_target": "Fis1 (not stated (endogenous in VSMCs; human and mouse VSMCs were cultured)) (UniProt Q9Y3D6)", "experiment": "co-IP"}, "[5]": {"molecular_target": "T1, mitofusin 1 (not stated (endogenous in VSMCs; human and mouse VSMCs were cultured))", "experiment": "proximity ligation"}}, "note": "Results are given in words; binding and its absence hold for the method and conditions named. Binding seen in cells or lysates may run through a third protein. Some entries that bind do so weakly or less than the wild type. For some assays here: Where a sequence is shown, tags or fusion partners need not be part of it.", "data": [{"substance": "Eukaryotic translation initiation factor 5a (from UniProt P63241 1-154)", "values": [{"measurement": "binding", "setting": "[1]", "result": "no binding"}, {"measurement": "binding", "setting": "[2]", "result": "binds"}, {"measurement": "binding", "setting": "[3]", "result": "no binding"}, {"measurement": "binding", "setting": "[4]", "result": "no binding"}, {"measurement": "binding", "setting": "[5]", "result": "binds"}]}]}
